From patent US11440887B2, “Substituted 1,2,3,4-tetrahydroquinolines as inhibitors of repair enzyme 8-oxoguanine deoxyribonucleic acid glycosylase activity” (The Board of Trustees of the Leland Stanford Junior …, priority 2017, dated 2022)

How the values were obtained:
Abasic DNA = test: Tm study with abasic DNA; format: binding; conditions: DNA 1 μM, 41 2 μM (1% DMSO), NEBuffer
OGR1 probe = test: Tm study with OGR1 probe; format: binding; conditions: DNA 1 μM, 41 2 μM (10% DMSO), PBS buffer and betaine (10 mM)

`NC(=O)c1cccc(-c2ccc(S(=O)(=O)Nc3ccc4c(c3)N(C(=O)C3CC3)CCC4)cc2)c1` [Compound 41] was tested, and the “Tm(+)” value (Abasic DNA) was 71.3 ± 0.29 °C, the ΔTm (Abasic DNA) was 0.0 °C and the “Tm(+)” value (OGR1 probe) was 82.5 ± 0.25 °C. The ΔTm (OGR1 probe) was 0.3 °C.
